From the supplement of paper PMC10727501 come the findings set out here.

The list shows a part of the results. Repeats in this data set agree poorly, so a single value says little.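 Free-swimming zebrafish larvae were scored for O-bend response probability to dark flashes (naive: first five; training: remaining flashes of four 60-flash blocks; test: later 60-flash block) and for turning toward alternating leftward/rightward LED motion (OMR). Six treated larvae were compared with sixty 0.1% DMSO controls; |SSMD|≥2 defined a hit.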

Conditions in all cases: 10 µM; pre-incubation: 30-90 min
Assay [1] has as its system Danio rerio larvae (5 dpf, TLF). Description: OMR-Perf (SSMD vs DMSO vehicle); higher = higher than vehicle (e.g. higher dark-flash O-bend response probability, or better optomotor performance).
For assay [2] the test system is unchanged. Description: Prob-Test (SSMD vs DMSO vehicle); higher = higher than vehicle (e.g. higher dark-flash O-bend response probability, or better optomotor performance).
For assay [3] the test system is unchanged. Description: Prob-Naive (SSMD vs DMSO vehicle); higher = higher than vehicle (e.g. higher dark-flash O-bend response probability, or better optomotor performance).
Assay [4] shares this test system. Description: Prob-Train (SSMD vs DMSO vehicle); higher = higher than vehicle (e.g. higher dark-flash O-bend response probability, or better optomotor performance).

On to `C[C@H](CCC(=O)O)[C@@H]1CC[C@H]2[C@H]3[C@@H](CC[C@@]21C)[C@@]1(C)CC[C@@H](O)C[C@H]1C[C@@H]3O` [Ursodiol], for which, in assay [1], the OMR-Perf amounted to 0.103. The Prob-Test in assay [2] came out at 0.164. Further, in assay [3], the Prob-Naive is -0.193. The compound also yielded a Prob-Train in assay [4] of 0.425.
The matching figures for `Cc1cc(Nc2cc(N3CCN(C)CC3)nc(/C=C/c3ccccc3)n2)n[nH]1`: 0.176, -0.0569, 0.173 and -0.683.
`CCc1cnn2c(NCc3ccc[n+]([O-])c3)cc(N3CCCC[C@H]3CCO)nc12` came in with an OMR-Perf in assay [1] of 0.365. The compound also yielded a Prob-Test in assay [2] of 1.13. Besides, in assay [3], the Prob-Naive is 0.145. Besides, the Prob-Train in assay [4] came to 0.716.
On the same counts, the results for `CC(C)N(CCCNC(=O)Nc1ccc(C(C)(C)C)cc1)C[C@H]1O[C@@H](n2ccc3c(N)ncnc32)[C@H](O)[C@@H]1O.Cl` are 0.372, -0.139, 0.146 and -0.385.
`C[C@]12CC[C@H]3c4ccc(O)cc4CC[C@H]3[C@@H]1CCC2=O` [Estrone] displayed an OMR-Perf in assay [1] of -0.877. The compound further came in with a Prob-Test in assay [2] of -0.209. The Prob-Naive in assay [3] is -0.458. For the same compound, in assay [4], the Prob-Train was -0.688.
On the same counts, the results for `COc1cc(O)cc([C@@H]2CC(=O)c3c(O)cc(O[C@@H]4O[C@H](CO)[C@@H](O)[C@H](O)[C@@H]4O[C@@H]4O[C@@H](C)[C@H](O)[C@@H](O)[C@@H]4O)cc3O2)c1` [Neohesperidin] are -1.33, 0.204, -0.0234 and -0.291.
On the same counts, the results for `COc1ccc2cc(CCC(C)=O)ccc2c1` [Nabumetone] are 0.249, -0.663, -0.521 and -1.09.
As for `C[C@@H]1[C@H](NC(=O)/C(=N\OC(C)(C)C(=O)O)c2csc(N)n2)C(=O)N1S(=O)(=O)O` [Aztreonam], in assay [1], the OMR-Perf amounted to 0.155. Also, the Prob-Test in assay [2] was found to be 0.412. Further, the Prob-Naive in assay [3] was 0.549. In assay [4], this compound returned a Prob-Train of 0.115.
